# The other results are listed elsewhere or left out.
# B1: PEB1 (Campylobacter jejuni), Q0P9X8 (protein)
# chain: MVFRKSLLKLAVFALGACVAFSNANAAEGKLESIKSKGQLIVGVKNDVPHYALLDQATGEIKGFEVDVAKLLAKSILGDDKKIKLVAVNAKTRGPLLDNGSVDAVIATFTITPERKRIYNFSEPYYQDAIGLLVLKEKKYKSLADMKGANIGVAQAATTKKAIGEAAKKIGIDVKFSEFPDYPSIKAALDAKRVDAFSVDKSILLGYVDDKSEILPDSFEPQSYGIVTKKDDPAFAKYVDDFVKEHKNEIDALAKKWGL
# Columns and labels:
# Assay in all cases: glycan array binding signal (z-score within array); higher = stronger binding
# Details in all cases: glycan notation: IUPAC condensed, linker removed
# [1] = target: Neu5Ac(a2-3)Gal(b1-4)[Fuc(a1-3)]GlcNAc(b1-3)Gal
# Summary of the method: (§1)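 Negative Z-scores can be read as non-binding. The Z-score is calculated within each array and then averaged across arrays of one protein sequence at different concentrations or buffers and across linkers. Arrays, 3228 in all, were curated from the Consortium for Functional Glycomics database and kept only where the protein sequence was available.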
# [2] = target: Neu5Ac(a2-3)Gal(b1-4)[Fuc(a1-3)]GlcNAc(b1-3)Gal(b1-4)GlcNAc
# Summary of the method: as §1
# [3] = target: Neu5Ac(a2-3)Gal(b1-4)[Fuc(a1-3)]GlcNAc(b1-3)Gal(b1-4)[Fuc(a1-3)]GlcNAc(b1-3)Gal(b1-4)[Fuc(a1-3)]GlcNAc
# Summary of the method: as §1
# [4] = target: Neu5Ac(a2-3)Gal(b1-4)[Fuc(a1-3)]GlcNAc(b1-3)GalNAc
# Summary of the method: as §1
# [5] = target: Neu5Ac(a2-3)Gal(b1-4)[Fuc(a1-3)]GlcNAc(b1-6)[Gal(b1-3)]GalNAc
# Summary of the method: as §1
# [6] = target: Neu5Ac(a2-3)Gal(b1-4)[Fuc(a1-3)]GlcNAc(b1-6)[Neu5Ac(a2-3)Gal(b1-3)]GalNAc
# Summary of the method: as §1
# [7] = target: Neu5Ac(a2-3)Gal(b1-4)[Fuc(a1-3)]GlcNAc6S
# Summary of the method: as §1
# [8] = target: Neu5Ac(a2-3)Gal6S(b1-4)GlcNAc
# Summary of the method: as §1
# [9] = target: Neu5Ac(a2-3)Gal6S(b1-4)[Fuc(a1-3)]GlcNAc
# Summary of the method: as §1
# [10] = target: Neu5Ac(a2-3)GalNAc
# Summary of the method: as §1
# [11] = target: Neu5Ac(a2-3)GalNAc(b1-4)GlcNAc
# Summary of the method: as §1
# [12] = target: Neu5Ac(a2-3)[GalNAc(b1-4)]Gal(b1-4)Glc
# Summary of the method: as §1
# [13] = target: Neu5Ac(a2-3)[GalNAc(b1-4)]Gal(b1-4)GlcNAc
# Summary of the method: as §1
# [14] = target: Neu5Ac(a2-3)[GalNAc(b1-4)]Gal(b1-4)GlcNAc(b1-3)GalNAc
# Summary of the method: as §1
# [15] = target: Neu5Ac(a2-3)[Neu5Ac(a2-6)]GalNAc
# Summary of the method: as §1
# [16] = target: Neu5Ac(a2-6)Gal
# Summary of the method: as §1
# [17] = target: Neu5Ac(a2-6)Gal(b1-4)Glc
# Summary of the method: as §1
# [18] = target: Neu5Ac(a2-6)Gal(b1-4)GlcNAc
# Summary of the method: as §1
# [19] = target: Neu5Ac(a2-6)Gal(b1-4)GlcNAc(b1-2)Man(a1-3)Man(b1-4)GlcNAc(b1-4)GlcNAc
# Summary of the method: as §1
# [20] = target: Neu5Ac(a2-6)Gal(b1-4)GlcNAc(b1-2)Man(a1-3)[Gal(b1-4)GlcNAc(b1-2)Man(a1-6)]Man(b1-4)GlcNAc(b1-4)GlcNAc
# Summary of the method: as §1
# [21] = target: Neu5Ac(a2-6)Gal(b1-4)GlcNAc(b1-2)Man(a1-3)[GlcNAc(b1-2)Man(a1-6)]Man(b1-4)GlcNAc(b1-4)GlcNAc
# Summary of the method: as §1
# [22] = target: Neu5Ac(a2-6)Gal(b1-4)GlcNAc(b1-2)Man(a1-3)[GlcNAc(b1-2)Man(b1-4)GlcNAc(b1-2)Man(a1-6)]Man(b1-4)GlcNAc(b1-4)GlcNAc
# Summary of the method: as §1
# [23] = target: Neu5Ac(a2-6)Gal(b1-4)GlcNAc(b1-2)Man(a1-3)[Man(a1-6)]Man(b1-4)GlcNAc(b1-4)GlcNAc
# Summary of the method: as §1
# [24] = target: Neu5Ac(a2-6)Gal(b1-4)GlcNAc(b1-2)Man(a1-3)[Neu5Ac(a2-6)Gal(b1-4)GlcNAc(b1-2)Man(a1-6)]Man(b1-4)GlcNAc(b1-4)GlcNAc
# Summary of the method: as §1
# [25] = target: Neu5Ac(a2-6)Gal(b1-4)GlcNAc(b1-2)Man(a1-6)Man(b1-4)GlcNAc(b1-4)GlcNAc
# Summary of the method: as §1
# [26] = target: Neu5Ac(a2-6)Gal(b1-4)GlcNAc(b1-2)Man(a1-6)[Gal(b1-4)GlcNAc(b1-2)Man(a1-3)]Man(b1-4)GlcNAc(b1-4)GlcNAc
# Summary of the method: as §1
# [27] = target: Neu5Ac(a2-6)Gal(b1-4)GlcNAc(b1-2)Man(a1-6)[GlcNAc(b1-2)Man(a1-3)]Man(b1-4)GlcNAc(b1-4)GlcNAc
# Summary of the method: as §1
# [28] = target: Neu5Ac(a2-6)Gal(b1-4)GlcNAc(b1-2)Man(a1-6)[Man(a1-3)]Man(b1-4)GlcNAc(b1-4)GlcNAc
# Summary of the method: as §1
# [29] = target: Neu5Ac(a2-6)Gal(b1-4)GlcNAc(b1-3)Gal(b1-3)GlcNAc
# Summary of the method: as §1
# [30] = target: Neu5Ac(a2-6)Gal(b1-4)GlcNAc(b1-3)Gal(b1-4)GlcNAc
# Summary of the method: as §1
# [31] = target: Neu5Ac(a2-6)Gal(b1-4)GlcNAc(b1-3)Gal(b1-4)GlcNAc(b1-3)Gal(b1-4)GlcNAc
# Summary of the method: as §1
# [32] = target: Neu5Ac(a2-6)Gal(b1-4)GlcNAc(b1-3)Gal(b1-4)[Fuc(a1-3)]GlcNAc(b1-3)Gal(b1-4)[Fuc(a1-3)]GlcNAc
# Summary of the method: as §1
# [33] = target: Neu5Ac(a2-6)Gal(b1-4)GlcNAc(b1-3)GalNAc
# Summary of the method: as §1
# [34] = target: Neu5Ac(a2-6)Gal(b1-4)GlcNAc6S
# Summary of the method: as §1
# [35] = target: Neu5Ac(a2-6)GalNAc
# Summary of the method: as §1
# [36] = target: Neu5Ac(a2-6)GalNAc(b1-4)GlcNAc
# Summary of the method: as §1
# [37] = target: Neu5Ac(a2-6)GlcNAc(b1-4)GlcNAc
# Summary of the method: as §1
# [38] = target: Neu5Ac(a2-6)GlcNAc(b1-4)GlcNAc(b1-4)GlcNAc
# Summary of the method: as §1
binder,measurement,setting,value
B1,glycan array binding signal (z-score),[1],-0.603
same,glycan array binding signal (z-score),[2],3.14
same,glycan array binding signal (z-score),[3],-1.09
same,glycan array binding signal (z-score),[4],8.24
same,glycan array binding signal (z-score),[5],0.995
same,glycan array binding signal (z-score),[6],3.1
same,glycan array binding signal (z-score),[7],-0.345
same,glycan array binding signal (z-score),[8],0.114
same,glycan array binding signal (z-score),[9],0.533
same,glycan array binding signal (z-score),[10],-0.404
same,glycan array binding signal (z-score),[11],-0.108
same,glycan array binding signal (z-score),[12],1.22
same,glycan array binding signal (z-score),[13],-0.934
same,glycan array binding signal (z-score),[14],-0.77
same,glycan array binding signal (z-score),[15],-0.361
same,glycan array binding signal (z-score),[16],1.7
same,glycan array binding signal (z-score),[17],0.452
same,glycan array binding signal (z-score),[18],-0.292
same,glycan array binding signal (z-score),[19],-0.088
same,glycan array binding signal (z-score),[20],1.62
same,glycan array binding signal (z-score),[21],0.318
same,glycan array binding signal (z-score),[22],0.025
same,glycan array binding signal (z-score),[23],-0.541
same,glycan array binding signal (z-score),[24],0.505
same,glycan array binding signal (z-score),[25],1.09
same,glycan array binding signal (z-score),[26],0.46
same,glycan array binding signal (z-score),[27],1.29
same,glycan array binding signal (z-score),[28],-0.186
same,glycan array binding signal (z-score),[29],-1.03
same,glycan array binding signal (z-score),[30],0.478
same,glycan array binding signal (z-score),[31],-0.611
same,glycan array binding signal (z-score),[32],0.249
same,glycan array binding signal (z-score),[33],-0.638
same,glycan array binding signal (z-score),[34],-0.002
same,glycan array binding signal (z-score),[35],-0.915
same,glycan array binding signal (z-score),[36],-1.03
same,glycan array binding signal (z-score),[37],-1.21
same,glycan array binding signal (z-score),[38],-0.053
